Data source: PubChem BioAssay AID686937 (Drosophila RNAi Screening Center, 2013)
Aim: 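Genes in the fly needed for secretion of protein constitutively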 (primary screen). Cell system: Drosophila S2 cells expressing secreted horseradish peroxidase. Reagents: long dsRNA against Drosophila genes. Timing: about 5.5 days (5 days dsRNA, then 12 h reporter induction). Challenge: reporter expression induced after 5 days of dsRNA, read 12 h later; inducer not stated. Measured: 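After 5 days of dsRNA and 12 h of reporter induction, medium peroxidase read by chemiluminescence and scored as per-plate z-score; higher values mean more reporter released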. Reading the numbers: z-score: higher = more reporter secreted into medium.
The deposit covers about 23,000 reagents; this is a random part of those that have a named target and a result. 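Reduced-secretion tags in replicate 1 do not always agree with the z-scores; no criterion for assigning the tags was given.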 Reagents against one gene are numbered here. Names joined by + are all predicted targets of the reagent. Not all columns of the deposit are shown. Not stated in the record: the amount of reagent.

z-score, replicate 1, by gene and reagent
ac: #1 -0.08
Gyc76C + CG42637: #1 0.53
DnaJ-1: #1 0.52
pug: #1 0.01
Cyp12c1: #1 0.4
CG4116: #1 0.35
Spt20: #1 -3.46
CG32628 (retired record): #1 0.2
CG3760: #1 0.68
ND6 (retired record): #1 0.7
CG12288: #1 0.36
yki: #1 -0.16
CG8547: #1 0.4
CG32945: #1 0.43
squ: #1 0.4
UQCR-11L: #1 -0.95
Cp190: #1 -0.86
CG5886: #1 0.48
Hsp23: #1 0.32
CG18508: #1 0.31
Synj: #1 0.28
CG33465: #1 -0.47
CR31054: #1 -0.02
p24-1: #1 -0.17
Nep7: #1 0.42
CG14300: #1 0.35
CG5608: #1 0.13
CG5478: #1 0.45
Dhfr: #1 -0.51
CG8813: #1 0.03
CG17493: #1 -0.66
LysE: #1 0.16
Cad99C: #1 0.19; #2 0.53
CG14881: #1 0.48
hdly: #1 0.23
sim: #1 0.21
arr: #1 0.33
nAChRalpha4: #1 0.19; #2 0.58
Usp39: #1 0.16
TBC1d7 + mRpS24: #1 0.24
CG7991: #1 0.51
CG34188: #1 0.32
ldbr: #1 -0.45
mRpL47: #1 0.13
PGRP-SB1: #1 0.13
CG8064: #1 0.41
tzn: #1 0.16
mRpL41: #1 0
Sgt1: #1 -0.05
CG14607: #1 0.33
CG10588: #1 0.19
Odj: #1 0.41
CG13312: #1 0.23
CG8097: #1 0.23
CG3635: #1 -0.04
CG10747: #1 0.28
kune: #1 -0.01
Jhbp11: #1 0.39
CG33095: #1 0.29
Tsp39D: #1 0.11
Hex-t2: #1 0.67
Galphaq: #1 0.4
CG14352: #1 0.4
CG31326: #1 -0.42
mon2: #1 -0.69
CG14931: #1 0.14
sol: #1 0.16
CG43347: #1 -0.52; #2 -0.15; #3 -2.06; #4 -0.4
CG12910: #1 0.52
Jhbp2: #1 -0.63
Scp2: #1 0.73; #2 0.28
Mics1: #1 0.13
CG31875: #1 0.38
p38c: #1 -0.44
CG6693: #1 0.27
Alg-2: #1 0.06
